These are yes or no findings as the source states them, for the method shown. Binding seen in cells or lysates may run through a third protein. Some results given as binding are weak or reduced against the parent protein; the word gives no strength.
Target: GST-QPCT fusion protein (UniProt Q16769)
Test: pull-down; GST-QPCT (E. coli) as bait, GST pull-down kit (Thermo Fisher Scientific); MTDH and NF-κB (p65) of MCF-7 and MDA-MB-231 cells detected by blot; only the target purified

By UniProt entry, the sequences of proteins in these tests, tags left out. Residues count along the entry.
UniProt Q16769, residues 29-361: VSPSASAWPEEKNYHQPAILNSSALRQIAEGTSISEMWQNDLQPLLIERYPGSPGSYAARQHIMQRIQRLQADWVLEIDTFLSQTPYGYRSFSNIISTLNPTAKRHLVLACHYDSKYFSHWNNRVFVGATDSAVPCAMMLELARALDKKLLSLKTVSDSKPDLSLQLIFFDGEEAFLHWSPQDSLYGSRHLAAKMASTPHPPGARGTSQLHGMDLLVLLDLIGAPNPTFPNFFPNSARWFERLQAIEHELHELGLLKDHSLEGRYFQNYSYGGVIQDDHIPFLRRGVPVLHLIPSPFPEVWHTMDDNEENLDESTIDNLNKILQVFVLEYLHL
UniProt Q04206: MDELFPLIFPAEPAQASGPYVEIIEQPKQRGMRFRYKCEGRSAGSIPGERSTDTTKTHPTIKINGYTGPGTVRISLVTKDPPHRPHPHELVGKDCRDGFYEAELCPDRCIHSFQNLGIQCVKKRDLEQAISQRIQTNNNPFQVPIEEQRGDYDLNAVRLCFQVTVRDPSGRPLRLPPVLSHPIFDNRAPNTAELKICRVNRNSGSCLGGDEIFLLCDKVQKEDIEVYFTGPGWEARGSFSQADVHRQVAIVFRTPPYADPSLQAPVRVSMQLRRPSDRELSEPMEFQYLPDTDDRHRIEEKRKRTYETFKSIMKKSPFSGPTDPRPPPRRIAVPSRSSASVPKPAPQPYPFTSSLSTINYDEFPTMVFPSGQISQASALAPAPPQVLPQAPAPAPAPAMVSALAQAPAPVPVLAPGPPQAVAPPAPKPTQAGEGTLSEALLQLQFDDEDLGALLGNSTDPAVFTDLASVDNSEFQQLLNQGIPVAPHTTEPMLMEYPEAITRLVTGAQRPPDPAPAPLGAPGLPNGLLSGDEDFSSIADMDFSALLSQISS

NF-κB (p65) (from UniProt Q04206 1-551)
binding: binds

B1: metadherin (MTDH) (protein, UniProt Q86UE4 1-582)
chain: MAARSWQDELAQQAEEGSARLREMLSVGLGFLRTELGLDLGLEPKRYPGWVILVGTGALGLLLLFLLGYGWAAACAGARKKRRSPPRKREEAAAVPAAAPDDLALLKNLRSEEQKKKNRKKLSEKPKPNGRTVEVAEGEAVRTPQSVTAKQPPEIDKKNEKSKKNKKKSKSDAKAVQNSSRHDGKEVDEGAWETKISHREKRQQRKRDKVLTDSGSLDSTIPGIENTITVTTEQLTTASFPVGSKKNKGDSHLNVQVSNFKSGKGDSTLQVSSGLNENLTVNGGGWNEKSVKLSSQISAGEEKWNSVSPASAGKRKTEPSAWSQDTGDANTNGKDWGRSWSDRSIFSGIGSTAEPVSQSTTSDYQWDVSRNQPYIDDEWSGLNGLSSADPNSDWNAPAEEWGNWVDEERASLLKSQEPIPDDQKVSDDDKEKGEGALPTGKSKKKKKKKKKQGEDNSTAQDTEELEKEIREDLPVNTSKTRPKQEKAFSLKTISTSDPAEVLVKNSQPIKTLPPATSTEPSVILSKSDSDKSSSQVPPILQETDKSKSNTKQNSVPPSQTKSETSWESPKQIKKKKKARRET
binding: no binding

Source: article PMC10903679
